For the experiment, the target named is AXIN1 (human (endogenous in HCT116)) (UniProt O15169). Description: affinity purification with mass spectrometry; HCT116 lysate (20 mM Tris-HCl pH 7.5, 130 mM NaCl, 10% glycerol, 2 mM EDTA, 1% Triton X-100); endogenous AXIN1 or GSK3B precipitated overnight at 4 °C with antibody-conjugated Protein G beads, isotype IgG as control; on-bead trypsin digest, DIA mass spectrometry; cells treated with 100 nM trametinib 4 h, 10 µM CHIR99021 30 min or DMSO.

Amino acid sequences for entries named in this document (tags omitted).
UniProt O15169: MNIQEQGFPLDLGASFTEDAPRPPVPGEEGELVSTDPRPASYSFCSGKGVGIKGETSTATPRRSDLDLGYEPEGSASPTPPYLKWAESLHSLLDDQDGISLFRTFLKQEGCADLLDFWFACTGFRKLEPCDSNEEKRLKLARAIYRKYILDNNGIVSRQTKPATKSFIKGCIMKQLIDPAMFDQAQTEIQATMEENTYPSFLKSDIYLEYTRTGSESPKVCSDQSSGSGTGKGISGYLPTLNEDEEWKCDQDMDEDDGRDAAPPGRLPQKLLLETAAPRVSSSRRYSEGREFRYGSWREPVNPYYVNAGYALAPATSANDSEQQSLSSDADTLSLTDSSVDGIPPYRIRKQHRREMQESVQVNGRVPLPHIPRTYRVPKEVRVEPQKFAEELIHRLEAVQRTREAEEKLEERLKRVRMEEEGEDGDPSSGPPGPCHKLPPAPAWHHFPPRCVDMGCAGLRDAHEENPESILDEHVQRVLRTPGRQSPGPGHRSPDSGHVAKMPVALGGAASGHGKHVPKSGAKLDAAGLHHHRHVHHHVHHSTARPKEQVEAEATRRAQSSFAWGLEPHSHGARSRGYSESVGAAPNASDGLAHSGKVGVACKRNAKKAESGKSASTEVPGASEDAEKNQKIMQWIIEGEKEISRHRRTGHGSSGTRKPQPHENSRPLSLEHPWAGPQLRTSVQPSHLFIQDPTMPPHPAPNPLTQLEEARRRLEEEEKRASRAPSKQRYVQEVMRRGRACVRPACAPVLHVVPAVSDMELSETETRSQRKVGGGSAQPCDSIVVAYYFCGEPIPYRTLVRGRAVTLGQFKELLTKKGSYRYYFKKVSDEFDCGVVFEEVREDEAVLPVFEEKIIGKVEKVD
UniProt P35222: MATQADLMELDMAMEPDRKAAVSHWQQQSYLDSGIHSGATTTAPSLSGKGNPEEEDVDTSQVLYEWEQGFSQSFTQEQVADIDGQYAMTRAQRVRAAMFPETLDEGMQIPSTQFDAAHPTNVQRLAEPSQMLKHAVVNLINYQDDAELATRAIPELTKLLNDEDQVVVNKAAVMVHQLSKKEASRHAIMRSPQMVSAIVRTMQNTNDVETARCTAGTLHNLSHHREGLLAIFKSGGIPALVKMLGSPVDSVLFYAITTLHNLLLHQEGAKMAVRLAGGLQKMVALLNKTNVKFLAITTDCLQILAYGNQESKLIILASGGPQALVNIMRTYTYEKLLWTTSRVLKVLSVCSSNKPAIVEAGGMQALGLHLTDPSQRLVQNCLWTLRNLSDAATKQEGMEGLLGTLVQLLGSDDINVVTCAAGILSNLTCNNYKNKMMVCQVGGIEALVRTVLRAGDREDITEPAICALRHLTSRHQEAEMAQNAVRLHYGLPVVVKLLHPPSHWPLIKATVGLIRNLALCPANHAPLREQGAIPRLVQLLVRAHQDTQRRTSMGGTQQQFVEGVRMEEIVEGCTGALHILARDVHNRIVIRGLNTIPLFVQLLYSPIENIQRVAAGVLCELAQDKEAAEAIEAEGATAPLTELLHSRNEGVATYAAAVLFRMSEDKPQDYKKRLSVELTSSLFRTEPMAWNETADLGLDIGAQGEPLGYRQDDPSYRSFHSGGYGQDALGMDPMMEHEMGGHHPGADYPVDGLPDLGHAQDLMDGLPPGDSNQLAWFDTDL

Results are given in words; binding and its absence hold for the method and conditions named. In cells and extracts the contact can be indirect. These calls come from enrichment with a bait or labelling near it, and not all partners need be listed.

As for “beta-catenin (from UniProt P35222 1-781)”, the binding entry is “binds”.

(Values after article PMC13217735.)
